## Drug screen on melanoma cell lines: apoptosis marker

Source: doi:10.1371/journal.pone.0140310, primary screening data, rounded.

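Human melanoma cell lines in 1,536-well plates were treated with two drugs together for 72 h, then fixed, stained and imaged. The read-out is the fraction of cleaved-PARP-positive nuclei, in % of that fraction in the DMSO control; 200 means twice the control level of this apoptosis marker. Every drug was used at one fixed concentration, the higher of two screened. These are primary screening values without error estimates. Basal and induced levels differ widely between cell lines.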
An unselected part of the screen is shown.

Drugs:
SNS-032: CC(C)(C)c1cnc(CSc2cnc(NC(=O)C3CCNCC3)s2)o1 at 50 nM
PD173074: CCN(CC)CCCCNc1ncc2cc(-c3cc(OC)cc(OC)c3)c(NC(=O)NC(C)(C)C)nc2n1 at 500 nM
vorinostat: O=C(CCCCCCC(=O)Nc1ccccc1)NO at 400 nM
perifosine: CCCCCCCCCCCCCCCCCCOP(=O)([O-])OC1CC[N+](C)(C)CC1 at 2000 nM
CP-690550: C[C@@H]1CCN(C(=O)CC#N)C[C@@H]1N(C)c1ncnc2[nH]ccc12 at 5000 nM
BI-D1870: CC(C)CCN1c2nc(Nc3cc(F)c(O)c(F)c3)ncc2N(C)C(=O)C1C (configuration not stated) at 1000 nM
GW9662: O=C(Nc1ccccc1)c1cc([N+](=O)[O-])ccc1Cl at 10000 nM
PLX4720: CCCS(=O)(=O)Nc1ccc(F)c(C(=O)c2c[nH]c3ncc(Cl)cc23)c1F at 400 nM
lestaurtinib: C[C@]12O[C@H](C[C@]1(O)CO)n1c3ccccc3c3c4c(c5c6ccccc6n2c5c31)CNC4=O at 20 nM

{"pair": "SNS-032 + CP-690550", "RPMI-7951": 298, "WM451Lu": 180, "SK-MEL-5": 124, "LOX IMVI": 220, "MEL-HO": 36.7, "WM1716": 257}
{"pair": "CP-690550 + PLX4720", "RPMI-7951": 172, "WM451Lu": 157, "SK-MEL-5": 77.2, "LOX IMVI": 65.5, "MEL-HO": 44.7, "WM1716": 257}
{"pair": "CP-690550 + PD173074", "RPMI-7951": 80.7, "WM451Lu": 86.3, "SK-MEL-5": 116, "LOX IMVI": 147, "MEL-HO": 78.0, "WM1716": 69.8}
{"pair": "PLX4720 + SNS-032", "RPMI-7951": 133, "WM451Lu": 234, "SK-MEL-5": 83.1, "LOX IMVI": 93.1, "MEL-HO": 81.7, "WM1716": 51.0}
{"pair": "SNS-032 + perifosine", "RPMI-7951": 224, "WM451Lu": 58.0, "SK-MEL-5": 41.5, "LOX IMVI": 96.3, "MEL-HO": 184, "WM1716": 302}
{"pair": "BI-D1870 + PLX4720", "RPMI-7951": 136, "WM451Lu": 290, "SK-MEL-5": 118, "LOX IMVI": 72.9, "MEL-HO": 325, "WM1716": 50.4}
{"pair": "lestaurtinib + SNS-032", "RPMI-7951": 411, "WM451Lu": 117, "SK-MEL-5": 625, "LOX IMVI": 211, "MEL-HO": 38.7, "WM1716": 122}
{"pair": "GW9662 + vorinostat", "RPMI-7951": 85.6, "WM451Lu": 102, "SK-MEL-5": 161, "LOX IMVI": 139, "MEL-HO": 56.7, "WM1716": 43.9}
{"pair": "lestaurtinib + PD173074", "RPMI-7951": 142, "WM451Lu": 241, "SK-MEL-5": 149, "LOX IMVI": 214, "MEL-HO": 138, "WM1716": 58.5}
{"pair": "CP-690550 + lestaurtinib", "RPMI-7951": 110, "WM451Lu": 60.8, "SK-MEL-5": 418, "LOX IMVI": 101, "MEL-HO": 70.6, "WM1716": 102}
{"pair": "CP-690550 + BI-D1870", "RPMI-7951": 66.8, "WM451Lu": 36.1, "SK-MEL-5": 67.1, "LOX IMVI": 57.9, "MEL-HO": 72.8, "WM1716": 9.5}
{"pair": "vorinostat + perifosine", "RPMI-7951": 282, "WM451Lu": 91.3, "SK-MEL-5": 125, "LOX IMVI": 159, "MEL-HO": 67.5, "WM1716": 107}
{"pair": "vorinostat + PD173074", "RPMI-7951": 168, "WM451Lu": 56.1, "SK-MEL-5": 114, "LOX IMVI": 118, "MEL-HO": 105, "WM1716": 57.8}
{"pair": "perifosine + CP-690550", "RPMI-7951": 311, "WM451Lu": 216, "SK-MEL-5": 64.0, "LOX IMVI": 59.5, "MEL-HO": 87.8, "WM1716": 191}
{"pair": "GW9662 + PLX4720", "RPMI-7951": 243, "WM451Lu": 2130, "SK-MEL-5": 75.8, "LOX IMVI": 89.7, "MEL-HO": 91.9, "WM1716": 195}
{"pair": "PLX4720 + vorinostat", "RPMI-7951": 86.5, "WM451Lu": 131, "SK-MEL-5": 107, "LOX IMVI": 64.8, "MEL-HO": 118, "WM1716": 183}
{"pair": "SNS-032 + PD173074", "RPMI-7951": 580, "WM451Lu": 760, "SK-MEL-5": 161, "LOX IMVI": 99.6, "MEL-HO": 75.1, "WM1716": 114}
{"pair": "GW9662 + PD173074", "RPMI-7951": 74.9, "WM451Lu": 149, "SK-MEL-5": 132, "LOX IMVI": 52.6, "MEL-HO": 45.0, "WM1716": 25.2}
{"pair": "PLX4720 + lestaurtinib", "RPMI-7951": 162, "WM451Lu": 333, "SK-MEL-5": 314, "LOX IMVI": 100, "MEL-HO": 98.1, "WM1716": 64.1}
{"pair": "GW9662 + perifosine", "RPMI-7951": 176, "WM451Lu": 128, "SK-MEL-5": 36.7, "LOX IMVI": 79.7, "MEL-HO": 44.9, "WM1716": 48.8}
{"pair": "lestaurtinib + GW9662", "RPMI-7951": 76.6, "WM451Lu": 360, "SK-MEL-5": 130, "LOX IMVI": 77.1, "MEL-HO": 58.0, "WM1716": 36.0}
{"pair": "perifosine + PD173074", "RPMI-7951": 205, "WM451Lu": 124, "SK-MEL-5": 33.4, "LOX IMVI": 314, "MEL-HO": 222, "WM1716": 84.2}
{"pair": "BI-D1870 + vorinostat", "RPMI-7951": 105, "WM451Lu": 66.5, "SK-MEL-5": 44.3, "LOX IMVI": 234, "MEL-HO": 63.7, "WM1716": 245}
{"pair": "GW9662 + BI-D1870", "RPMI-7951": 288, "WM451Lu": 70.5, "SK-MEL-5": 218, "LOX IMVI": 199, "MEL-HO": 85.6, "WM1716": 119}
{"pair": "SNS-032 + GW9662", "RPMI-7951": 156, "WM451Lu": 859, "SK-MEL-5": 307, "LOX IMVI": 96.0, "MEL-HO": 43.7, "WM1716": 26.5}
{"pair": "CP-690550 + vorinostat", "RPMI-7951": 233, "WM451Lu": 65.8, "SK-MEL-5": 119, "LOX IMVI": 247, "MEL-HO": 74.0, "WM1716": 167}
{"pair": "perifosine + BI-D1870", "RPMI-7951": 76.7, "WM451Lu": 117, "SK-MEL-5": 162, "LOX IMVI": 320, "MEL-HO": 96.9, "WM1716": 52.5}
{"pair": "perifosine + lestaurtinib", "RPMI-7951": 181, "WM451Lu": 67.3, "SK-MEL-5": 152, "LOX IMVI": 120, "MEL-HO": 92.9, "WM1716": 64.2}

Repeated from the top, 2 entries:

Pair,RPMI-7951,WM451Lu,SK-MEL-5,LOX IMVI,MEL-HO,WM1716
SNS-032 + CP-690550,298,180,124,220,36.7,257
CP-690550 + PLX4720,172,157,77.2,65.5,44.7,257